Measured values as given in the supplement of paper PMC10849652.
The list shows a part of the results.

The chains behind the UniProt entries cited, without tags or fusion partners. Where a name states a change or a piece, a line headed by the entry shows the natural chain unless it says otherwise.
UniProt P23458: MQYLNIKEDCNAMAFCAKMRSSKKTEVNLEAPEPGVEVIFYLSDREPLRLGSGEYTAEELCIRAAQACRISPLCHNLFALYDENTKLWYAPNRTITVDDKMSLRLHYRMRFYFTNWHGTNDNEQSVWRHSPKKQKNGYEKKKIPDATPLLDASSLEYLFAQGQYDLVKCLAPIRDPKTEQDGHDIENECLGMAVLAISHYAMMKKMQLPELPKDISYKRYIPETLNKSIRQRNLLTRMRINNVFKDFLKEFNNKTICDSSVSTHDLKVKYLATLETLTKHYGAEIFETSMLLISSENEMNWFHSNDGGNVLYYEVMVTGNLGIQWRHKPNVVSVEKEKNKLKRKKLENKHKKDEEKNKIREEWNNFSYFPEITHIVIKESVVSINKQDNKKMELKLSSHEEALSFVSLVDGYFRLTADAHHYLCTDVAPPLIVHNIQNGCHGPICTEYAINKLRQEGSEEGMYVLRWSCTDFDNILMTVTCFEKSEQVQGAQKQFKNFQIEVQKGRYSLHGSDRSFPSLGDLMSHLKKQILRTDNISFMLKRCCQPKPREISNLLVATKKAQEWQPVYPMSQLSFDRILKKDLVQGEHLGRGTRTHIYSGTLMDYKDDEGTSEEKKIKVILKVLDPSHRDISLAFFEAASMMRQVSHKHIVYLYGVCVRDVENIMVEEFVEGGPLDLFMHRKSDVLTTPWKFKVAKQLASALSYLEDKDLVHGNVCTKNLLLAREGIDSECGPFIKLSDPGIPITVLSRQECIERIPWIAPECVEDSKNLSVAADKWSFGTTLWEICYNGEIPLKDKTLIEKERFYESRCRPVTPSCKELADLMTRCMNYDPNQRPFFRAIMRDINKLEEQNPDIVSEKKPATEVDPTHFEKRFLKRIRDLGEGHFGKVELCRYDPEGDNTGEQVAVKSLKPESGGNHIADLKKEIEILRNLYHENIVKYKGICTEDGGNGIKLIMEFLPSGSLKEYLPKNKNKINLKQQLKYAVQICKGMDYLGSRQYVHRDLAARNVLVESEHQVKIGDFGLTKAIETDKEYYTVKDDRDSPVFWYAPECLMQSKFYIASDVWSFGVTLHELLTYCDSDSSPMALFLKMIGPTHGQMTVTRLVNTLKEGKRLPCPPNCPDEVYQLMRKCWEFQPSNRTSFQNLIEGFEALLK
UniProt O75449: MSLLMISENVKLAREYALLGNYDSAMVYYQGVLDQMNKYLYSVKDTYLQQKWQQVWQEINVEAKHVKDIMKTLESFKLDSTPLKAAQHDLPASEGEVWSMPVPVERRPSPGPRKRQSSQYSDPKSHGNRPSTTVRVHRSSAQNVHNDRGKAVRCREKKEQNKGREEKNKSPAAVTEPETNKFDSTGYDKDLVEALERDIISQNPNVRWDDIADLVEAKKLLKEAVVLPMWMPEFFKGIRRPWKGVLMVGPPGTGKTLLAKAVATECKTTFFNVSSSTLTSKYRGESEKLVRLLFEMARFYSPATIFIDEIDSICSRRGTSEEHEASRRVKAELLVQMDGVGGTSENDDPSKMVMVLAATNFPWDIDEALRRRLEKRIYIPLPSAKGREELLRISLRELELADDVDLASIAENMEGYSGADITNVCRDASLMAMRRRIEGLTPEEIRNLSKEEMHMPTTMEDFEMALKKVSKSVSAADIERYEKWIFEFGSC
UniProt Q75QN2, whole entry, looked up: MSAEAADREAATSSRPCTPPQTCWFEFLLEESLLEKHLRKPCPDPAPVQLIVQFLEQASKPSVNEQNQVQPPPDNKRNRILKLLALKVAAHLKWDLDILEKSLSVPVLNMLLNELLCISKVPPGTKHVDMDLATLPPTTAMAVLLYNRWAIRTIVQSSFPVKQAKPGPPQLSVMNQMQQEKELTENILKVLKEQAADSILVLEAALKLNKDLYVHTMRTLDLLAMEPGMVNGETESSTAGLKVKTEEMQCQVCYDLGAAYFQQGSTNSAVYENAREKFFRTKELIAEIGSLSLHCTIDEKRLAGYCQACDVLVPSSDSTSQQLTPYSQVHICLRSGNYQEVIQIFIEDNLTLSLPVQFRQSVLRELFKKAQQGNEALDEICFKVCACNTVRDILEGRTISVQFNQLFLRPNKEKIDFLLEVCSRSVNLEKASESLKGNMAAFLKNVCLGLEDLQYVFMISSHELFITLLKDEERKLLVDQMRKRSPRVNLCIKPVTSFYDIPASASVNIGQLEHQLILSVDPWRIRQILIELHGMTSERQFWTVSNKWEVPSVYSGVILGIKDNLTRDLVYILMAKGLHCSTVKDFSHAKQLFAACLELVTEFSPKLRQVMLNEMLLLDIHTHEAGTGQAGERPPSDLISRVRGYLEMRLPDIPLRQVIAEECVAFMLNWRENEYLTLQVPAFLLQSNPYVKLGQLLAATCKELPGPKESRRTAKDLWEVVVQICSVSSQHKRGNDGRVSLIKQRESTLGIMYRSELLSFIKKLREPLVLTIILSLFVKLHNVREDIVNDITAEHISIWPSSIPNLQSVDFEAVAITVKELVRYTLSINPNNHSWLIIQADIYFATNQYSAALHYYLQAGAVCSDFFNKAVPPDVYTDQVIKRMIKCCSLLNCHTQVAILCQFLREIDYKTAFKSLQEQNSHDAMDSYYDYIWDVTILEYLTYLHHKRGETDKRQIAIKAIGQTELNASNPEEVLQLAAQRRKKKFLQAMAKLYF
UniProt Q13572: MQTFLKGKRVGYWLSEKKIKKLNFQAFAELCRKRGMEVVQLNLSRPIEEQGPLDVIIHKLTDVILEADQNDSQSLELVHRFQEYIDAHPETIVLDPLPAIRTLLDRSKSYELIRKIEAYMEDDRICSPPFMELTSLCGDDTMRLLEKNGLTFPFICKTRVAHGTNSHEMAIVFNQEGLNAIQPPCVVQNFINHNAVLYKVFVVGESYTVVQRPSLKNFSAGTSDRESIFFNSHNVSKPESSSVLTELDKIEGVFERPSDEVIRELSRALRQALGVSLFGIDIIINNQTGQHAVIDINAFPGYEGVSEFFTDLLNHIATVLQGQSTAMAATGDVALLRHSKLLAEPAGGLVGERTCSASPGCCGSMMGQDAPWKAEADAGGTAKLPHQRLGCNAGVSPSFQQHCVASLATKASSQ
UniProt Q9Y597: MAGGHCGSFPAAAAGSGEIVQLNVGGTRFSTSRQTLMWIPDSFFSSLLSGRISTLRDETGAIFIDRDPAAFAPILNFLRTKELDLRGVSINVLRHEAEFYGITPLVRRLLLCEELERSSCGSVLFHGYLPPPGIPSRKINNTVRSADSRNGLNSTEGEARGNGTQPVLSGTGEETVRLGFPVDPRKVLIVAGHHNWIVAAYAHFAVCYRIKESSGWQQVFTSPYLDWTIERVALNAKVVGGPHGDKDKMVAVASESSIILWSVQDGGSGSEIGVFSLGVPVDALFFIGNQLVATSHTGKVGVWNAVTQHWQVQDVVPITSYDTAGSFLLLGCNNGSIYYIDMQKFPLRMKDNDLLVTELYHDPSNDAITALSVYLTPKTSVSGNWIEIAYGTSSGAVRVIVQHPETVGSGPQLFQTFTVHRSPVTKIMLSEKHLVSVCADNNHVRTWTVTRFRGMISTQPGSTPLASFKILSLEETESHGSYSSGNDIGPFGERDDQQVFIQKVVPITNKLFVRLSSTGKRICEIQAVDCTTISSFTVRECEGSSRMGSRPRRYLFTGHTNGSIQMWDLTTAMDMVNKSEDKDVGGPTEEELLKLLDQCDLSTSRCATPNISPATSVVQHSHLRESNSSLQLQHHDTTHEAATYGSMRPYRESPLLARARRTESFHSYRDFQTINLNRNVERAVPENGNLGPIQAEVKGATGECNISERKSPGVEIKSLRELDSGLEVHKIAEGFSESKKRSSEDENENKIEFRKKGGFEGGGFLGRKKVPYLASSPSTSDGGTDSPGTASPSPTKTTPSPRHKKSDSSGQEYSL
UniProt Q9UL03, whole entry, looked up: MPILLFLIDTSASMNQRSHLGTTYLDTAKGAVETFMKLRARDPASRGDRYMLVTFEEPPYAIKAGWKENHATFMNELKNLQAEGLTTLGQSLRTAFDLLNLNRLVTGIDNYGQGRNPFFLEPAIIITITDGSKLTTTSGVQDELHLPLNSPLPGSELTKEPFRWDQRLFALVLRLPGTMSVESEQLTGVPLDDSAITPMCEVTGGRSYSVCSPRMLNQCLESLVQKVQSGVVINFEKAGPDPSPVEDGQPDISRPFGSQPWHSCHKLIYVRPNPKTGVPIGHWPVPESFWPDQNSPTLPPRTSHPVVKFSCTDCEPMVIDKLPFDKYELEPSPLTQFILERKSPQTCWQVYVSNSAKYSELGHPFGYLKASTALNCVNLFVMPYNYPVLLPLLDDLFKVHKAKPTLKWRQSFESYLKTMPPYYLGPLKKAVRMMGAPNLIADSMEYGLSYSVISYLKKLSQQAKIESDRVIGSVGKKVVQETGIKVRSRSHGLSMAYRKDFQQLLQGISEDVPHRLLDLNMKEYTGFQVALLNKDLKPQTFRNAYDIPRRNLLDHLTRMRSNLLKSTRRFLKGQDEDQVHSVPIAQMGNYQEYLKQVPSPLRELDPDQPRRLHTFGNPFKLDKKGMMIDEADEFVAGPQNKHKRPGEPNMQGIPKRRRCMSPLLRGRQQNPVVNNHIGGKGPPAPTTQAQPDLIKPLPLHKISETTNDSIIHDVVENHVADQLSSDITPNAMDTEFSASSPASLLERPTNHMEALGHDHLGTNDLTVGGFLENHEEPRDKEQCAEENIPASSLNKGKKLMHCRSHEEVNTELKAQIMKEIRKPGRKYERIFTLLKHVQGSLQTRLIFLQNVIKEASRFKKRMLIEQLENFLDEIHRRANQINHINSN
UniProt Q92993, whole entry, looked up: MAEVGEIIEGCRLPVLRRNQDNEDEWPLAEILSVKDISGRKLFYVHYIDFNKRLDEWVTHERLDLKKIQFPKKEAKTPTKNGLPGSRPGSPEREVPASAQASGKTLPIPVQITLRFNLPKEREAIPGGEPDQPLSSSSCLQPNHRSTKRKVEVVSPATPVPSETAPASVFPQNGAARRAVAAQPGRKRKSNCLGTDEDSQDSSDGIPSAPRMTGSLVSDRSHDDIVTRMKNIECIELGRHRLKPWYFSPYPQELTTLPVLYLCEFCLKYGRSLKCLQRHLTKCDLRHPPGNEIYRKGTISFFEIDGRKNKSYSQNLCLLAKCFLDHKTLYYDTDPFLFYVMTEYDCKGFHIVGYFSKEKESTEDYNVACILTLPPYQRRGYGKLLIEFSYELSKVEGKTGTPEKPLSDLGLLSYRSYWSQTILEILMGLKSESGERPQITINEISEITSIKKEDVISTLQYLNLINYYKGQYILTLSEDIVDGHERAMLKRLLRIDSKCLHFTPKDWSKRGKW
UniProt Q96SI1: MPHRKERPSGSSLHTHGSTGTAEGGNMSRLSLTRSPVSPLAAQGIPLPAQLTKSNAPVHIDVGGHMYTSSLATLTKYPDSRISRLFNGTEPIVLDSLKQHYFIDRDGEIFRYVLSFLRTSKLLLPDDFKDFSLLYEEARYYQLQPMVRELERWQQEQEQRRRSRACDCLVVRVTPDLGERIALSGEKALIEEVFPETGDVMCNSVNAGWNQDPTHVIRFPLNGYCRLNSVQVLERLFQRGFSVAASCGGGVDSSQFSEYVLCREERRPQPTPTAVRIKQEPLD
UniProt P14316: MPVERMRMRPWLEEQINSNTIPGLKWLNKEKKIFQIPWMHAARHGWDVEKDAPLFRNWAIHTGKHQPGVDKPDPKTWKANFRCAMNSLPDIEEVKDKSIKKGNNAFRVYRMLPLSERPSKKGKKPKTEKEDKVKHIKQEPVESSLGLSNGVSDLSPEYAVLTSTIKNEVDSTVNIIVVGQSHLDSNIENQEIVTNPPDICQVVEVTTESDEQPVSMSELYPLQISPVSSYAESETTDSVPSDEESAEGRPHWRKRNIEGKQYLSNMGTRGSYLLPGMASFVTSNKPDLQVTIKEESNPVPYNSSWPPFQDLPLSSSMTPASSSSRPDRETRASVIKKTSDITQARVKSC
UniProt Q9NVX7: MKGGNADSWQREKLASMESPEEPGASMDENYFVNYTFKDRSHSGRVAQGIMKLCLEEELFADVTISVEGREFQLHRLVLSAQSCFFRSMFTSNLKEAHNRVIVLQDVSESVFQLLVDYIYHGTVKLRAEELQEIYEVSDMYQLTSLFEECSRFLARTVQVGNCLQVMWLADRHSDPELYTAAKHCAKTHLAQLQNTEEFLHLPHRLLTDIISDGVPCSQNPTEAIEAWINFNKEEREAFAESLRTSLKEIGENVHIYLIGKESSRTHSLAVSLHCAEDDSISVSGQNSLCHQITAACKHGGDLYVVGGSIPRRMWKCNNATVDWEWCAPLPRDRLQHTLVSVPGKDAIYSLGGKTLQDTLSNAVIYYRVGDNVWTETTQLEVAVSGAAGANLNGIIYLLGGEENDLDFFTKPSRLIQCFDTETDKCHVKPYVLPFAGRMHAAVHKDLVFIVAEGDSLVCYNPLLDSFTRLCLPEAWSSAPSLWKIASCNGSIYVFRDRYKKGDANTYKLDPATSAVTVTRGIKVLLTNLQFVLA

Tests used:
Experiment in all cases: log2 fold change, soluble protein after heating vs DMSO (PISA); higher = thermal stabilisation; K562 lysate, 10 uM; active = over 0.2 and 3.5 SD of the protein, either way, in both replicates (recomputed)
[1] = compound: C1=CC=C(C=C1)[C@H](COC2=CC3=C(C=C2)NC(=O)N3)NC(=O)C4=CC=CN(C4=O)CC5=CC(=C(C=C5)F)F
Outline: (§1)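 Soluble protein was defined as the supernatant remaining after 21,000xg for 90 min, following pooling of heated aliquots and adjustment to 0.5% NP-40 at 4°C. Before that, crude K562 extract at 1 mg/mL protein in PBS pH 7.4 with 1 mM MgCl2 was treated with 10 μM compound for 30 min and heated for 3 min across 48°C-58°C. Quantification used TMTpro 16plex LC-MS/MS with channel sums equalised, and values are log-two fold changes in thermal stability relative to solvent controls from duplicates.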

[2] = compound: CC1=C(SC2=C1C(=N[C@H](C3=NN=C(N32)C)CC(=O)N)C4=CC=C(C=C4)Cl)C
Outline: as §1

[3] = compound: CC1=C2C(=CC=C1)N=C(N(C2=O)C3=CC=CC=C3C)CN4C=NC5=C(N=CN=C54)N
Outline: as §1

[4] = compound: Cc1sc2c(c1C)C(c1ccc(Cl)cc1)=N[C@@H](CC(=O)OC(C)(C)C)c1nnc(C)n1-2
Outline: as §1

[5] = compound: c1ccc([C@@H]2C[C@H]2NC2CCNCC2)cc1
Outline: as §1

Row | Target | log2 fold change [1] | log2 fold change [2] | log2 fold change [3] | log2 fold change [4] | log2 fold change [5]
1 | KDM3A (UniProt Q9Y4C1) | inactive: 0.011 | inactive: -0.061 | inactive: -0.018 | inactive: -0.006 | inactive: 0.123
2 | KDM1A (UniProt O60341) | inactive: 0.007 | inactive: -0.004 | inactive: 0.018 | inactive: 0.009 | active: 0.817
3 | JAK1 (UniProt P23458) | inactive: 0.057 | inactive: -0.15 | inactive: 0.034 |  | 
4 | INTS5 (UniProt Q6P9B9) | inactive: -0.086 | inactive: -0.034 | inactive: -0.019 | inactive: 0.015 | inactive: 0.127
5 | KDM3B (UniProt Q7LBC6) | inactive: -0.023 | inactive: 0.017 | inactive: 0.027 | inactive: 0.029 | inactive: 0
6 | ITCH (UniProt Q96J02) | inactive: -0.073 | inactive: -0.018 | inactive: 0.035 | inactive: -0.071 | inactive: 0.002
7 | KDF1 (UniProt Q8NAX2) | inactive: -0.036 | inactive: 0.126 | inactive: -0.246 |  | 
8 | KDM1B (UniProt Q8NB78) | inactive: -0.043 | inactive: 0.025 | inactive: 0.092 | inactive: 0.061 | inactive: -0.055
9 | KATNA1 (UniProt O75449) | inactive: -0.015 | inactive: 0.009 | inactive: -0.02 | inactive: 0.006 | inactive: -0.001
10 | KATNB1 (UniProt Q9BVA0) | inactive: -0.001 | inactive: -0.041 | inactive: 0.017 | inactive: 0.024 | inactive: -0.005
11 | IRGQ (UniProt Q8WZA9) | inactive: 0.004 | inactive: 0.002 | inactive: 0 | inactive: -0.01 | inactive: -0.021
12 | IPO8 (UniProt O15397) | inactive: -0.004 | inactive: 0.014 | inactive: 0.03 | inactive: -0.005 | inactive: 0.053
13 | INTS8 (UniProt Q75QN2) | inactive: 0.021 | inactive: -0.085 | inactive: -0.002 | inactive: 0.023 | inactive: 0.081
14 | IRF2BP2 (UniProt Q7Z5L9) | inactive: 0.023 | inactive: -0.018 | inactive: 0 | inactive: 0.023 | inactive: -0.009
15 | ITPK1 (UniProt Q13572) | inactive: 0.03 | inactive: -0.071 | inactive: -0.019 | inactive: 0.046 | inactive: 0.054
16 | KANSL3 (UniProt Q9P2N6) | inactive: 0.087 | inactive: 0.023 | inactive: 0.021 | inactive: 0.037 | inactive: -0.034
17 | KAT7 (UniProt O95251) | inactive: -0.039 | inactive: 0.001 | inactive: -0.065 | inactive: -0.058 | inactive: -0.104
18 | KCTD3 (UniProt Q9Y597) | inactive: 0.04 | inactive: 0.074 | inactive: 0.009 | inactive: -0.026 | inactive: -0.042
19 | INTS6 (UniProt Q9UL03) | inactive: 0.078 | inactive: 0.052 | inactive: 0.05 | inactive: -0.051 | inactive: 0.05
20 | KAT5 isoform 3 (UniProt Q92993) | inactive: 0.026 | inactive: -0.026 | inactive: 0.065 | inactive: 0.058 | inactive: 0.016
21 | KAT6B (UniProt Q8WYB5) | inactive: 0.087 | inactive: -0.21 | inactive: 0.078 | inactive: -0.026 | inactive: -0.179
22 | ITFG2 (UniProt Q969R8) | inactive: -0.035 | inactive: 0.008 | inactive: -0.057 | inactive: 0.075 | inactive: -0.069
23 | KCTD15 (UniProt Q96SI1) | inactive: 0.031 | inactive: -0.018 | inactive: -0.039 | inactive: 0.029 | inactive: -0.015
24 | IQSEC2 (UniProt Q5JU85) | inactive: 0.027 | inactive: 0.061 | inactive: 0.041 | inactive: 0.182 | inactive: 0.014
25 | IRF2 (UniProt P14316) | inactive: 0.169 | inactive: -0.029 | inactive: 0.007 | inactive: -0.034 | inactive: -0.037
26 | KBTBD4 isoform 2 (UniProt Q9NVX7) | inactive: -0.014 | inactive: -0.003 | inactive: -0.106 | inactive: -0.025 | inactive: 0.016
27 | ISY1 isoform 1 (UniProt Q9ULR0) | inactive: 0.016 | inactive: 0 | inactive: 0.001 | inactive: -0.12 | inactive: -0.004

Record cards (already shown). Order of values: log2 fold change [1] | log2 fold change [2] | log2 fold change [3] | log2 fold change [4] | log2 fold change [5]
IRF2 (UniProt P14316) as listed: inactive: 0.169 | inactive: -0.029 | inactive: 0.007 | inactive: -0.034 | inactive: -0.037
KANSL3 (UniProt Q9P2N6) as listed: inactive: 0.087 | inactive: 0.023 | inactive: 0.021 | inactive: 0.037 | inactive: -0.034
